Reference: PMC7540253, “Sensitive LC-MS/MS Method for the Quantification of Macrocyclic Gαq Protein Inhibitors in Biological Samples” (Frontiers in Chemistry, 2020)

Experiment: Recovery rate of the 3-step liquid-liquid extraction from spiked mouse tissues and plasma
Conditions: organs of non-treated mice (250 mg) or plasma (100 µL) extracted with buffer spiked with 100 nM FR; 3-step LLE, LC-MS/MS; average over tissues, three independent experiments (Figure S2)

Substance	Recovery rate of extraction
YM-254890	similarly efficient
FR900359	~ 50%
